Values joined by “and” are separate entries in the source; they are usually repeats but may differ in a detail not shown here. Equal values may be shown once. Out of some 580,000 compounds screened, about 6,100 (1.1%) were called active. The shares of active, inactive and inconclusive entries below differ from those in the screen. The call rests on the fitted dose curve; in most records, active means well fitted inhibition curve with a large enough effect; inconclusive means small, poorly fitted or top-dose-only effect, or another doubt; inactive means no such curve, though single readings can be large or run the other way. Potencies of inconclusive entries are doubtful fits and often do not repeat.
molecular target: Polyunsaturated fatty acid lipoxygenase ALOX12 (Homo sapiens) (UniProt P18054); experiment: Primary qHTS assay for inhibitors of human arachidonate 12S-lipoxygenase (ALOX12): Round 2; conditions: purified 12hLO, xylenol orange hydroperoxide absorbance; activity change, negative = inhibition: at 108 µM (top of the series) unless noted
Summary of the method: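 Purified human 12hLO at 150 nM in 25 mM Hepes, 0.01% Triton X-100, pH 7.0, preincubated 15 min at room temperature with compound. Reaction started with 40 uM arachidonic acid, 30 min at room temperature. Hydroperoxide measured by Fe-xylenol orange, 573/405 nm absorbance ratio.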
On the % scale 0 is the no-effect control and ±100 the full control effect; potency means the concentration at half of the fitted maximal effect.

By UniProt entry, the sequences of proteins in these tests, tags left out. Where a name states a change or a piece, a line headed by the entry shows the natural chain unless it says otherwise.
UniProt P18054: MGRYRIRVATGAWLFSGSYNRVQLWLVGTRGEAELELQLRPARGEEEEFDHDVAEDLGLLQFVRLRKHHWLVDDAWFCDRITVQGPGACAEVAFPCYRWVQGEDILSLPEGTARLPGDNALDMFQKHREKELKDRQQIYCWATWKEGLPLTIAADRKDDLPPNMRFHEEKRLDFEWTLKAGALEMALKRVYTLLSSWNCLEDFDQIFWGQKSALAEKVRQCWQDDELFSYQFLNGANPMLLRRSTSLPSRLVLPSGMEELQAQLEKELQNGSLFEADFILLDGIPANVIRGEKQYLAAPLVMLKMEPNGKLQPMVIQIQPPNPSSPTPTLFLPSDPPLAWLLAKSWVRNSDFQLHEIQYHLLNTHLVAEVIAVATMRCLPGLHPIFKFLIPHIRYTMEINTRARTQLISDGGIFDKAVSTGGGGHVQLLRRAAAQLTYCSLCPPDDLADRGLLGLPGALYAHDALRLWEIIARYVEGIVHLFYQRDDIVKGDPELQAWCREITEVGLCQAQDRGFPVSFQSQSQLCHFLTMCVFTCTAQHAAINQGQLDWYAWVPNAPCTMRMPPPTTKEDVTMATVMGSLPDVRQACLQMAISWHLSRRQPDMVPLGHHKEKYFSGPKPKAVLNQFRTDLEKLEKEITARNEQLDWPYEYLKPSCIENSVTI

| SMILES | Potency | activity change, negative = inhibition |
| --- | --- | --- |
| COC(=O)C1CN(Cc2ccc(Cl)cc2)CCS(=O)(=O)N1Cc1cn(Cc2ccc(OC)cc2)nn1 (stereo unspecified) | inconclusive: 5.01 µM [inhibitor, full curve, poor fit] | – |
| CCCCn1cc2c(c1-c1ccccc1Br)c(=O)n(C)c(=O)n2C | inconclusive: 39.8 µM [inhibitor, partial curve, poor fit] | – |
| Cc1ccc(C)c(OCC(=O)Nc2cc(NC(=O)COc3cc(C)ccc3C)cc(C(=O)O)c2)c1 | inconclusive: 50.1 µM [inhibitor, partial curve, poor fit] | – |
| O=C(c1ccccc1Br)N1CCc2c([nH]c3ccccc23)C1 | – | inconclusive: -34.8% [inhibitor] |
| N#C/C(=C\c1ccc(O)c(O)c1)C(=O)NCc1ccccc1 | inconclusive: 282 nM [inhibitor, full curve, poor fit] and inconclusive: 3.98 µM [inhibitor, full curve, poor fit] and inconclusive: 20 µM [inhibitor, partial curve, poor fit] | – |
| COc1ccc(N(CC(=O)N2CCN(c3cccc(C)c3)C(C)C2)S(=O)(=O)c2c(C)n[nH]c2C)cc1 (stereo unspecified) | inactive | – |
| CCC1(c2ccccc2)NC(=O)N(CC(=O)Nc2ccc(N3CCCC3)cc2C)C1=O (stereo unspecified) | inconclusive: 70.8 µM [inhibitor, partial curve, poor fit] | – |
| O=C(Nc1sc2c(c1C(=O)O)CCC2)c1ccc(F)cc1 | inconclusive: 112 µM [inhibitor, partial curve, poor fit] | – |
| COCCN1C(=O)[C@@H]2C[C@@H](CN2Cc2ccc(OC)nc2)Oc2ccccc21 | inactive | – |
| COc1cccc2c1OCC(C(=O)N1CC(Oc3ccccc3C)C1)C2 (stereo unspecified) | inactive | – |
| CCN(CC)CCN1C(=O)C2C(C(=O)Nc3ccc(C(C)C)cc3)C3C=CC2(O3)C1C(=O)NC1CCCCC1 (stereo unspecified) | inactive | – |
| COC(=O)c1ccc([C@H]2[C@@H](C(=O)O)c3ccccc3C(=O)N2Cc2ccc(F)cc2)cc1 | inconclusive: 44.7 µM [inhibitor, partial curve, poor fit] | – |
| CN(C)CCCn1c2c3ccccc3ccc2c2oc(=O)c3ccccc3c21 | inconclusive: 70.8 µM [inhibitor, single point] | – |
| CC(C)c1ccc(N2C(=O)CC(Sc3ncn[nH]3)C2=O)cc1 (stereo unspecified) | inconclusive: 10 µM [inhibitor, partial curve, poor fit] | – |
| O=C1ON=C(c2ccccc2)/C1=C/c1ccc(O)cc1 | active: 44.7 µM | – |
| CC(=O)Nc1ccc(CNCCSCc2cccs2)cc1 | inconclusive: 0.631 µM [inhibitor, full curve, poor fit] | – |
| Cn1ccc(NC(=O)c2ccc3c(c2)NC(C)(CCCCc2ccccc2)CO3)n1 (stereo unspecified) | inactive | – |
| CCCC(c1nnnn1C1CCCCC1)N1CCN(C2CCCC2)CC1 (stereo unspecified) | inconclusive: 17.8 µM [inhibitor, partial curve, poor fit] | – |
| O=[S+]1([O-])NC2(CCCN(Cc3ccc(F)cc3)C2)CNc2ccccc21 (stereo unspecified) | inconclusive: 28.2 µM [inhibitor, full curve] | – |
| COc1cc(/C=C/C(=O)OC(C)C(=O)c2ccccc2)cc(OC)c1OC (stereo unspecified) | inconclusive: 89.1 µM [inhibitor, partial curve, poor fit] | – |
| CCS(=O)(=O)N1CCCC(C(=O)NCc2ccncc2)CCNC(=O)CC1 (stereo unspecified) | inactive | – |

Some of the entries above in another layout.
SMILES	Potency	activity change, negative = inhibition
CC(=O)Nc1ccc(CNCCSCc2cccs2)cc1	inconclusive: 0.631 µM [inhibitor, full curve, poor fit]	–
Cn1ccc(NC(=O)c2ccc3c(c2)NC(C)(CCCCc2ccccc2)CO3)n1 (stereo unspecified)	inactive	–
CCCC(c1nnnn1C1CCCCC1)N1CCN(C2CCCC2)CC1 (stereo unspecified)	inconclusive: 17.8 µM [inhibitor, partial curve, poor fit]	–

Remaining list, next part

| SMILES | Potency | activity change, negative = inhibition |
| --- | --- | --- |
| COc1ccc2oc(C(=O)NCCc3ccccc3)c(C)c2c1 | inconclusive: 22.4 µM [inhibitor, partial curve, poor fit] | – |
| CCN(CC)C(=O)COC(=O)c1ccccc1-c1ncc(-c2ccc(F)cc2)o1 | inactive | – |
| COc1ccc(C(=O)N2CC3(C)CC2CC(C)(C)C3)cc1OC (stereo unspecified) | inconclusive: 112 µM [inhibitor, single point] | – |
| O=C(CCC(=O)N1CC2CCCN2c2ccccc21)NCc1cccc(Cl)c1 (stereo unspecified) | inconclusive: 112 µM [inhibitor, partial curve, poor fit] | – |
| COC(=O)Nc1ccc2c(c1)ncn2C1CCCCC1 | inconclusive: 0.501 µM [inhibitor, full curve, poor fit] | – |
| COc1ccc(-n2c(=O)c(-c3cn(C)c4ccccc34)nc3cnc(N4CCNCC4)nc32)cc1 | inconclusive: 70.8 µM [inhibitor, partial curve, poor fit] | – |
| CCOc1ccc(NS(=O)(=O)c2cccc(C(=O)N(C)Cc3ccco3)c2)cc1 | inconclusive: 1.12 µM [inhibitor, partial curve, poor fit] | – |
| O=C(Nc1ccc(F)cc1)c1cccnc1NCCc1ccccc1 | inconclusive: 50.1 µM [inhibitor, partial curve, poor fit] | – |
| CN(C)C(=O)c1cccc(-c2cccc(-c3nc(C(=O)NCc4ccccc4)cc4c3[C@H](CCO)N(S(=O)C(C)(C)C)C4)c2)c1 (stereo partly specified) | inconclusive: 25.1 µM [inhibitor, partial curve, poor fit] | – |
| O=C(CC1CCCO1)NC(c1cccs1)C1CCCC1 (stereo unspecified) | inactive | – |
| CC1(C)CC(CC(=O)NC(=S)Nc2ccc([N+](=O)[O-])cc2)C(=O)O1 (stereo unspecified) | inconclusive: 31.6 µM [inhibitor, single point] | – |
| C=CCOc1c(Br)cc(CNn2nnnc2N)cc1OC | inactive | – |
| CCN(CC)C(=O)CSc1nc(C)cc(-c2cccs2)c1C#N | inconclusive: 56.2 µM [inhibitor, partial curve, poor fit] | – |
| CCc1cc(C(=O)N2CCc3c([nH]c4ccccc34)C2c2ccc(OC)cc2F)no1 (stereo unspecified) | inconclusive: 141 µM [inhibitor, partial curve, poor fit] | – |
| Cc1cccc(CNC(=O)c2ccc(-c3nnc4ccc(NC(=O)C5CCC5)cn34)cc2)c1 | inactive | – |
| CN1C(=O)CC(C(=O)O)C12CCN(C(=O)NCCc1ccccc1F)CC2 (stereo unspecified) | inactive | – |
| C[C@H](CO)N1C[C@H](C)[C@H](CN(C)Cc2ccncc2)Oc2ccc(NC(=O)Nc3ccc(C(F)(F)F)cc3)cc2CC1=O | inactive | – |
| C[C@@H]1CN(C(=O)Cc2c(F)ccc(Cl)c2F)CC[C@]1(C)O | inactive | – |
| O=C(C1=C[C@@H](c2ccccc2)C[C@@H](OCc2ccc(CO)cc2)O1)N1CCCCCCC1 | inactive | – |
| COc1ccc(-c2n[nH]c(=S)n2/N=C/c2cccn2C)cc1 | inconclusive: 28.2 µM [inhibitor, partial curve, poor fit] | – |
| Cc1ccc2oc(-c3cccc(NC(=S)NC(=O)/C=C/c4ccco4)c3)nc2c1 | inconclusive: 35.5 µM [inhibitor, partial curve, poor fit] | – |

| SMILES | Potency | activity change, negative = inhibition |
| --- | --- | --- |
| COc1ccc(CNS(=O)(=O)c2cc(Cl)ccc2N2CC[C@@H](O)C2)cc1 | inconclusive: 79.4 µM [inhibitor, single point] | – |
| COc1ccccc1C(=O)N1CCC(c2nnc3n2C(C(=O)O)CC3)CC1 (stereo unspecified) | inconclusive: 8.91 µM [inhibitor, full curve, poor fit] | – |
| Clc1cccc(Cl)c1CNCCN1CCCC1 | inconclusive: 3.98 µM [inhibitor, full curve, poor fit] | – |
| CC(C(=O)O)N1C(=O)/C(=C/C=C/c2ccco2)SC1=S (stereo unspecified) | inconclusive: 7.08 µM [inhibitor, full curve, poor fit] | – |
| COc1ccc2[nH]c3c(=O)n(Cc4ccc(C(=O)N5CCCC5)cc4)c(=S)[nH]c3c2c1 | inconclusive: 28.2 µM [inhibitor, partial curve, poor fit] | – |
| C=CCn1c(SCC(=O)NC2CC2)nnc1-c1cccc(OC)c1 | inactive | – |
| Fc1ccc(/C=C\c2nccc3c2[nH]c2ccccc23)cc1 | inactive | – |
| CCOC1=C2CN(S(=O)(=O)c3ccc(C)cc3)[C@H](c3cccc4ccccc34)C[C@H]2[C@H]2C(=O)N(c3ccccc3)C(=O)[C@H]2C1 | inconclusive: 22.4 µM [inhibitor, full curve, poor fit] | – |
| CNC(=S)N(C)/N=C1/C(=O)N(Cc2c(Cl)cccc2Cl)c2ccccc21 | inconclusive: 79.4 µM [inhibitor, partial curve, poor fit] | – |
| O=C1NC(=NC2CCCCC2)C2(CCN(CC3CCCCC3)CC2)N1c1cccnc1 | – | inactive: 6.83% [at 6.33 µM] |
| CCCCNc1nc(-c2ccc(Cl)cc2Cl)cs1 | inconclusive: 50.1 µM [inhibitor, partial curve, poor fit] | – |
| O=C(Cc1cc(=O)[nH]c(=O)[nH]1)NCC1CCCO1 (stereo unspecified) | inconclusive: 126 µM [inhibitor, single point] | – |
| CC1(Cc2ccc(C(F)(F)F)o2)C(=O)Nc2ccc(-c3cccc(C(F)(F)F)c3)cc21 (stereo unspecified) | inconclusive: 39.8 µM [inhibitor, partial curve, poor fit] | – |
| COc1ccc(CN2C(=O)c3oc4ccc(F)cc4c(=O)c3C2c2ccc(O)cc2)cc1 (stereo unspecified) | inconclusive: 126 µM [inhibitor, single point] | – |
| CC1(C)CC(=O)C=C(c2ccc(COC(=O)c3ccc(Br)cc3)cc2)C1=O | inactive | – |
| COc1ccc(-c2cn(C)c(=O)n3cc(CN4CC[S+](=O)([O-])CC4)nc23)cc1OC | inconclusive: 35.5 µM [inhibitor, full curve, poor fit] | – |
| Cc1cc(=O)n(CC(=O)Nc2cc(Cl)ccc2C)c(N2CCC(C)CC2)n1 | inactive | – |
| CCOc1cc(/C=C2/SC(=S)N(Cc3ccccc3)C2=O)ccc1O | inconclusive: 12.6 µM [inhibitor, full curve, poor fit] | – |
| Cc1cnc(NC(=O)CCc2c(C)[nH]c(=O)[nH]c2=O)s1 | inconclusive: 112 µM [inhibitor, single point] | – |

Look-ups from the list:
Value of C=CCn1c(SCC(=O)NC2CC2)nnc1-c1cccc(OC)c1 under Potency: inactive
Value of CC1(C)CC(=O)C=C(c2ccc(COC(=O)c3ccc(Br)cc3)cc2)C1=O under Potency: inactive
Value of Cc1cc(=O)n(CC(=O)Nc2cc(Cl)ccc2C)c(N2CCC(C)CC2)n1 under Potency: inactive
